The other results are listed elsewhere or left out.

The chains behind the UniProt entries cited, without tags or fusion partners. Where a name states a change or a piece, a line headed by the entry shows the natural chain unless it says otherwise.
UniProt P49407: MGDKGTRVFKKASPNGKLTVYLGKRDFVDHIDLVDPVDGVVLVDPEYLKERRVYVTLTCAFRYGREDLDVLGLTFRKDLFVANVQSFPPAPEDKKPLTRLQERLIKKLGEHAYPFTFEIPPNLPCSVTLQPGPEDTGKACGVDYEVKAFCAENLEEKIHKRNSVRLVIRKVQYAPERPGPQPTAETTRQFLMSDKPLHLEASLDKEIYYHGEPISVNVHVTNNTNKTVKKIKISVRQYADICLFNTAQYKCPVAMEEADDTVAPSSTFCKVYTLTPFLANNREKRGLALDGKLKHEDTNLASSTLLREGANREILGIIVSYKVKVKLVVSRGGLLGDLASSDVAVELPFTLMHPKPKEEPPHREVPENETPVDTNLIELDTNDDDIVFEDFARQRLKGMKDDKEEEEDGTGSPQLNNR
UniProt Q9NVP2, whole entry, looked up: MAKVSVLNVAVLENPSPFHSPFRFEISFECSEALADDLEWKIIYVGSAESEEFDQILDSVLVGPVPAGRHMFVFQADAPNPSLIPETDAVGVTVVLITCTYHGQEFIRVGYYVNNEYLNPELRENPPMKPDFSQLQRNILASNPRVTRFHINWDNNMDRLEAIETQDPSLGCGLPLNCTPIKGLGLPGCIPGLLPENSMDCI
UniProt Q3SXY8: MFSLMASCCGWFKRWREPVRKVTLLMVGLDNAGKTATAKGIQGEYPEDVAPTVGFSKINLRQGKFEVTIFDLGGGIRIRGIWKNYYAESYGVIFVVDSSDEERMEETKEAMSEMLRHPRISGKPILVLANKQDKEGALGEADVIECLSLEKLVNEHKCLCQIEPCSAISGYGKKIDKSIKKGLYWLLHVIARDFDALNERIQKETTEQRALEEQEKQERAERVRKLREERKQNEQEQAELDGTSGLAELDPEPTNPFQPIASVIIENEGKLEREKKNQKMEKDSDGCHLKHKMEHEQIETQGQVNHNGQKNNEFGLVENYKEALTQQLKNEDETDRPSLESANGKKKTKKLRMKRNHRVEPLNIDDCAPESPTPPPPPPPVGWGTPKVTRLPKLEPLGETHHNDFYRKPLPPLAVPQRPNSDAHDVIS
UniProt P27449, whole entry, looked up: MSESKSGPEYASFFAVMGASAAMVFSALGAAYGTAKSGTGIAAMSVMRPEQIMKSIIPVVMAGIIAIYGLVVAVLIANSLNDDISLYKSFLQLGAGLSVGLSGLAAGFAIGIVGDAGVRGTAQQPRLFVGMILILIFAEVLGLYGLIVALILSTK
UniProt Q6P4H8: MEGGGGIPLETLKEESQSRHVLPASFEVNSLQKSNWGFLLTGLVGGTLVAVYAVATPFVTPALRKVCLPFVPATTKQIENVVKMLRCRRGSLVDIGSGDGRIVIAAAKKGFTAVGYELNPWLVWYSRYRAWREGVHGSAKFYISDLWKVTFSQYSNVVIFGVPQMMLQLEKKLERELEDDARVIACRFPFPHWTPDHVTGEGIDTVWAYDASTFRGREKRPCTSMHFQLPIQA
UniProt P14415, whole entry, looked up: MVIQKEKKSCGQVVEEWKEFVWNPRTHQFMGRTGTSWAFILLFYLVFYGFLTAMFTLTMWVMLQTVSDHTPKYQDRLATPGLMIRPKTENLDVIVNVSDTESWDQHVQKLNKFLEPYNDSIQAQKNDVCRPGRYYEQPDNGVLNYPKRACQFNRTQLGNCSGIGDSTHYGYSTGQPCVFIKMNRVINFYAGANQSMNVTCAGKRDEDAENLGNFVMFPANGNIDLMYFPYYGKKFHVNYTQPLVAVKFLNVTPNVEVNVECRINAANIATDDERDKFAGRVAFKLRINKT
UniProt Q9H0Y0: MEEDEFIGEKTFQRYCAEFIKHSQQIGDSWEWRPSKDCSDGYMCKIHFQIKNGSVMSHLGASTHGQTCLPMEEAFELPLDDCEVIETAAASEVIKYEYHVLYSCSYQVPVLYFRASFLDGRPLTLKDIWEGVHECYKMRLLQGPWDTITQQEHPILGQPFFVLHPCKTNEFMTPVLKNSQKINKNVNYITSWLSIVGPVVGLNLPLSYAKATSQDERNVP
UniProt Q96KC2: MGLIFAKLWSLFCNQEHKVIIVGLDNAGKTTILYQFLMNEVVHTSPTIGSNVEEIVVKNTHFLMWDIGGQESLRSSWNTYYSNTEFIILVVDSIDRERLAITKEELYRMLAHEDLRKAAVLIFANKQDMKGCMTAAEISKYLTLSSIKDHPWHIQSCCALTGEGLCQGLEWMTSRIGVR
UniProt P15289: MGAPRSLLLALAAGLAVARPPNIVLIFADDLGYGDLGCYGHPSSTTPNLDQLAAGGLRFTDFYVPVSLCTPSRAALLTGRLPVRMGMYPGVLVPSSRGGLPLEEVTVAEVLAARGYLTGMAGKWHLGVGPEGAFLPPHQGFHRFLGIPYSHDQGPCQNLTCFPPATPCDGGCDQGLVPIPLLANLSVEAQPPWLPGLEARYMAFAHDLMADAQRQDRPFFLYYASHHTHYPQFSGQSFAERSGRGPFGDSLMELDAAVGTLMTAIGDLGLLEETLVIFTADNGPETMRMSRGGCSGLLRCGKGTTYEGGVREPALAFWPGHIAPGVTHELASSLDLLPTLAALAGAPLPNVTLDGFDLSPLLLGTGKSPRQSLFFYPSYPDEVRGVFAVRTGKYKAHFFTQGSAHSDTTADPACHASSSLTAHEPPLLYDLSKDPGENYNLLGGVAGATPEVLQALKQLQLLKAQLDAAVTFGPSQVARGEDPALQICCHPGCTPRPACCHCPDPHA
UniProt Q9Y689: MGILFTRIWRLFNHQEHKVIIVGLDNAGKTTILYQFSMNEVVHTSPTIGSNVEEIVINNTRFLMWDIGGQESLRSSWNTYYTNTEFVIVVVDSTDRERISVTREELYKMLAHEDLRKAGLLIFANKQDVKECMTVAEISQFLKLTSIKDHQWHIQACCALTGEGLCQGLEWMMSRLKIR
UniProt O94817, whole entry, looked up: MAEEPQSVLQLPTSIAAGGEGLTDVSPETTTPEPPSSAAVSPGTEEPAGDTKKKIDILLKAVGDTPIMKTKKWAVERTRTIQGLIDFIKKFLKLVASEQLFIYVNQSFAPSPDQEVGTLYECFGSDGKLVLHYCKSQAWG
UniProt Q8N5I2: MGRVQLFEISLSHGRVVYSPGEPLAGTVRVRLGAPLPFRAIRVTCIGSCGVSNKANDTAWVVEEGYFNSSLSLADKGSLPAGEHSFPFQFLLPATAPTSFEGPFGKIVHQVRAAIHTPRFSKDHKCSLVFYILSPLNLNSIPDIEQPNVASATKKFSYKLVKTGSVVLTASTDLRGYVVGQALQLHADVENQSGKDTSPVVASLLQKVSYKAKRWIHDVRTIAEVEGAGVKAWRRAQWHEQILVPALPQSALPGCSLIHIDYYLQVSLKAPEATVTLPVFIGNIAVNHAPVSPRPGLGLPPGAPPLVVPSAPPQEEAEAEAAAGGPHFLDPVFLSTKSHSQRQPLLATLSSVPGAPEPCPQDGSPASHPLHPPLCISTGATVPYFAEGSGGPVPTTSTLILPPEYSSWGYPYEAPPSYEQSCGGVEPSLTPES
UniProt P00966: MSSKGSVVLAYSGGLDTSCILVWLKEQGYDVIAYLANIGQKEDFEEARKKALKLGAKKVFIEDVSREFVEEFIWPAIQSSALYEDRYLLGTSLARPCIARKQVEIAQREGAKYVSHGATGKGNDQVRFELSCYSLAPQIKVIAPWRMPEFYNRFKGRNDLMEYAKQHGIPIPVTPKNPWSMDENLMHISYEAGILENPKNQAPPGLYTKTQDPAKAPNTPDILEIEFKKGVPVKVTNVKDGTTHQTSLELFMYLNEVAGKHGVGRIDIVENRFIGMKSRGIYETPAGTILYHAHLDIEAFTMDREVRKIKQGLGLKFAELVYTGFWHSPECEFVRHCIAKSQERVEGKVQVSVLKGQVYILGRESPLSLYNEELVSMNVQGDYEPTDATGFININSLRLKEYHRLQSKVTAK
UniProt Q9H1I8: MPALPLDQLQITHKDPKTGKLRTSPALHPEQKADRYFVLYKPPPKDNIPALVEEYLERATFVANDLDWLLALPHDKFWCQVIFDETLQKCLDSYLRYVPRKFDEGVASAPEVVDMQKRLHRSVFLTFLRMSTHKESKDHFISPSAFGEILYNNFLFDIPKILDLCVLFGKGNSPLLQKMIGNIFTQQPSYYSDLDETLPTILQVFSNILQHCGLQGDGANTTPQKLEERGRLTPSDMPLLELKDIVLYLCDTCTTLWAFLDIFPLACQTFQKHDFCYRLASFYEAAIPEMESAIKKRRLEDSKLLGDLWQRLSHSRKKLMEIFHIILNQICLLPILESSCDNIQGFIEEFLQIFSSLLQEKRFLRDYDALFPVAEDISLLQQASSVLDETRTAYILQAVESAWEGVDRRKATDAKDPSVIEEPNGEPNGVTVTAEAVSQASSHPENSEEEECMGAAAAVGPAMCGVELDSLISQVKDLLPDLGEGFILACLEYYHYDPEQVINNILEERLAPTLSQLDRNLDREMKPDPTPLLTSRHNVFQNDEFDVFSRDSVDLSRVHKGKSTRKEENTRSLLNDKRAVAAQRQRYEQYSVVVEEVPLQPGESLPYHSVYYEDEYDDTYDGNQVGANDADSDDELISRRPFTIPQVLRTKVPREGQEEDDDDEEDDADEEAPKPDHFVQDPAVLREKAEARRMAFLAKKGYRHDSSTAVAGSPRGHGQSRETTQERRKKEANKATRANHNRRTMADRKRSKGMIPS
UniProt Q76L83: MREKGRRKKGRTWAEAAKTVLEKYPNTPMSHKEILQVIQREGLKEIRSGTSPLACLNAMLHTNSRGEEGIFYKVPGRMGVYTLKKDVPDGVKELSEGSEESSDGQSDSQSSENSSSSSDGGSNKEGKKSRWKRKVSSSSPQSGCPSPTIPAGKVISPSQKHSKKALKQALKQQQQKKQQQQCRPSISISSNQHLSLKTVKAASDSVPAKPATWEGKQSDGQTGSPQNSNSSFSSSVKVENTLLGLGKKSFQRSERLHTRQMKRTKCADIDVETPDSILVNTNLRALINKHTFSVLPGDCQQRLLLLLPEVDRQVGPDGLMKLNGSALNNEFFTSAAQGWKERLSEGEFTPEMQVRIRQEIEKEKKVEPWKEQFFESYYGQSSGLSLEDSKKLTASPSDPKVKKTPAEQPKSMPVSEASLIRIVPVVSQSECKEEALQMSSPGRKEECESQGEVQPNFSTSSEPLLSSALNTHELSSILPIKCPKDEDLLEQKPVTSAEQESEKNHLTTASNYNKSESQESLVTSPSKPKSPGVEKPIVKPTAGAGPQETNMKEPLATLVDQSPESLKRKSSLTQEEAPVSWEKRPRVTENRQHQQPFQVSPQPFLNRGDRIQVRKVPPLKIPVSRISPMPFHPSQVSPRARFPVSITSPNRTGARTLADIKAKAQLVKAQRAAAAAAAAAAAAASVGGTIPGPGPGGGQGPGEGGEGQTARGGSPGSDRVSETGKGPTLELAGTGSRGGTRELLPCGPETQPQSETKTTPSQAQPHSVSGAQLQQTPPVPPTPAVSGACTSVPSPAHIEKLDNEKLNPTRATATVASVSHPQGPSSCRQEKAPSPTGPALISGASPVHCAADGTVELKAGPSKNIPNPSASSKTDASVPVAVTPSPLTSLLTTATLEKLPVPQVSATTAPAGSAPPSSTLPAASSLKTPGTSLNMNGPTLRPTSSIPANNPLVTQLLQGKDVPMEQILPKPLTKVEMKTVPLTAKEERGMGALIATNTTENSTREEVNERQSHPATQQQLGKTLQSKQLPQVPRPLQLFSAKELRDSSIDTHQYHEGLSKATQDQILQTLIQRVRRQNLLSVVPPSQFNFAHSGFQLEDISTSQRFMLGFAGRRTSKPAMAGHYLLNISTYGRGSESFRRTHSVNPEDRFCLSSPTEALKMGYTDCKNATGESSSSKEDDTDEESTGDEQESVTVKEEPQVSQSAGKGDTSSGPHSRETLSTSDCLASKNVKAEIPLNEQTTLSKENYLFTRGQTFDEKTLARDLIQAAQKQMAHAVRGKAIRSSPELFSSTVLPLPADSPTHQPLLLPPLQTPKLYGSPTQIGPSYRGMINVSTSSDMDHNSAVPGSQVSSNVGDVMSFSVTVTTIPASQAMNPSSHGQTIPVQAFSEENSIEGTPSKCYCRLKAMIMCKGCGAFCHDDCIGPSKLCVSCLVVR
UniProt O95260: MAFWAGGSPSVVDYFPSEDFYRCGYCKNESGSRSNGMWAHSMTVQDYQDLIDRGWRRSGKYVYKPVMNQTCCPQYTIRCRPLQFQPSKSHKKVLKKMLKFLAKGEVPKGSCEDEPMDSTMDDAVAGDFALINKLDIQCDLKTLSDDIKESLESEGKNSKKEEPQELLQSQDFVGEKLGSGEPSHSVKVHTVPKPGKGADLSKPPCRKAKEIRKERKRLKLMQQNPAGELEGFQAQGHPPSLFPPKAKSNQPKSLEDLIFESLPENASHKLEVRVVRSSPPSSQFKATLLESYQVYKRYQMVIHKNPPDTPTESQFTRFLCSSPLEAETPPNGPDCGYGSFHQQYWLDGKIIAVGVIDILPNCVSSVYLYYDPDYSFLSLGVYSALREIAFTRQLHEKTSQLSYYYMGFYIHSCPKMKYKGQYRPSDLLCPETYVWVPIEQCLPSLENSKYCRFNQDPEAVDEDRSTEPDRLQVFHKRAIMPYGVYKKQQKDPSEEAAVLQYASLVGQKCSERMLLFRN

Compound in the first assay: CN(C)CC(=O)Nc1ccc2[nH]c(=O)c3ccccc3c2c1
The assay can be described thus: log2 fold change, soluble protein after heating vs DMSO (PISA); higher = thermal stabilisation; K562 cells, 10 uM, 30 min; active = over 0.2 and 3.5 SD of the protein, either way, in both replicates (recomputed). The method, boiled down: (§1)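 K562 cells at 2×10^6 cells/mL were treated for 30 min with 10 μM compound, and aliquots were heated for 3 min over 48°C-58°C before pooling. Extraction used PBS with 0.5% NP-40 at 4°C, and soluble protein was the supernatant after 21,000xg for 90 min, measured by TMTpro 16plex LC-MS/MS with channel sums equalised. Thermal stability values, relative to control samples and from duplicates, are log2 fold changes.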
For the target ARRB1 isoform 2 (UniProt P49407), the log2 fold change was inactive: 0.062.

In the case of ASF1B (UniProt Q9NVP2), the log2 fold change is inactive: -0.011.

With ATG4A (UniProt Q8WYN0), the log2 fold change is inactive: 0.034.

On to ATP5F1B (UniProt H0YI37), for which the log2 fold change was inactive: 0.066.

On to ARL13B (UniProt Q3SXY8), for which the log2 fold change was inactive: -0.088.

With ATF1 (UniProt P18846), the log2 fold change is inactive: 0.002.

Compound in the next assay: CN(CCOC1=CC=C(C=C1)C[C@H]2C(=O)NC(=O)S2)C3=CC=CC=N3 (racemic) [rosiglitazone]
The assay is described as above. The essentials:
as §1
As for ATP6V0C (UniProt P27449), the log2 fold change was inactive: -0.096.

Regarding ATPSCKMT (UniProt Q6P4H8), the log2 fold change was inactive: 0.033.

In the case of ATP1B2 (UniProt P14415), the log2 fold change was inactive: 0.

Consider ARSK (UniProt Q6UWY0), for which the log2 fold change was inactive: 0.018.

ATG10 (UniProt Q9H0Y0): the log2 fold change is inactive: -0.132.

On to ATF3 (UniProt P18847), for which the log2 fold change is inactive: -0.194.

As for ARL5B (UniProt Q96KC2), the log2 fold change is inactive: 0.134.

On to ARPIN isoform 2 (UniProt Q7Z6K5), for which the log2 fold change was inactive: 0.145.

With ARSA (UniProt P15289), the log2 fold change was inactive: -0.17.

With ASXL1 (UniProt Q8IXJ9), the log2 fold change was inactive: -0.056.

In the case of ARL5A (UniProt Q9Y689), the log2 fold change was inactive: -0.013.

For ATF7IP isoform 4 (UniProt Q6VMQ6), the log2 fold change was inactive: 0.017.

In the case of ATP1B1 (UniProt P05026), the log2 fold change was inactive: 0.037.

For the target ATG14 (UniProt Q6ZNE5), the log2 fold change is inactive: -0.223.

Take ATP2C1 isoform 3 (UniProt P98194): the log2 fold change is inactive: 0.034.

Take ATG12 (UniProt O94817): the log2 fold change was inactive: 0.038.

With ATP5F1B (UniProt F8W0P7), the log2 fold change is inactive: -0.1.

Turning to ASNSD1 (UniProt Q9NWL6), the log2 fold change was inactive: -0.112.

ARRB1 isoform 2 (UniProt P49407): the log2 fold change is inactive: -0.02.

Take ASF1B (UniProt Q9NVP2): the log2 fold change is inactive: 0.048.

As for ATP5F1B (UniProt H0YI37), the log2 fold change was inactive: 0.052.

Regarding ARL13B (UniProt Q3SXY8), the log2 fold change is inactive: 0.042.

Compound in a further assay: CN1C2=C(C3=C1C(=O)N(N=C3)CC4=CC(=CC=C4)N)SC(=C2)S(=O)C
Described as above. The method, boiled down:
as §1
As to ATP6V0C (UniProt P27449), the log2 fold change was inactive: -0.052.

As to ATPSCKMT (UniProt Q6P4H8), the log2 fold change was inactive: -0.175.

For the target ATP1B2 (UniProt P14415), the log2 fold change is inactive: -0.004.

Take ATL2 (UniProt Q8NHH9): the log2 fold change was inactive: -0.078.

Turning to ATF3 (UniProt P18847), the log2 fold change was inactive: 0.066.

As to ARL5B (UniProt Q96KC2), the log2 fold change was inactive: -0.068.

With ARSA (UniProt P15289), the log2 fold change was inactive: 0.022.

In the case of ARRDC1 (UniProt Q8N5I2), the log2 fold change was inactive: -0.038.

ARL5A (UniProt Q9Y689): the log2 fold change is inactive: -0.013.

For ATF7 isoform 6 (UniProt P17544), the log2 fold change was inactive: -0.06.

For the target ATP1A2 (UniProt P50993), the log2 fold change was inactive: -0.377.

In the case of ATP1B1 (UniProt P05026), the log2 fold change is inactive: -0.042.

On to ASS1 (UniProt P00966), for which the log2 fold change is inactive: 0.025.

As for ASCC2 (UniProt Q9H1I8), the log2 fold change is inactive: 0.186.

ASXL2 (UniProt Q76L83): the log2 fold change is inactive: 0.198.

Regarding ATG12 (UniProt O94817), the log2 fold change was inactive: -0.073.

Consider ATP5F1B (UniProt F8W0P7), for which the log2 fold change is inactive: -0.106.

On to ATE1 (UniProt O95260), for which the log2 fold change was inactive: 0.258.

Turning to ATP2B2 (UniProt Q01814), the log2 fold change is inactive: -0.065.

Take ARRB1 isoform 2 (UniProt P49407): the log2 fold change is inactive: 0.044.

As for ASF1B (UniProt Q9NVP2), the log2 fold change is inactive: -0.013.

Take ATP5F1B (UniProt H0YI37): the log2 fold change was inactive: 0.283.

Turning to ARL13B (UniProt Q3SXY8), the log2 fold change is inactive: -0.008.

Compound in another assay: CN1CCC(CNc2ccc3ncc(-c4cccc(OC(F)(F)F)c4)n3n2)CC1
Described as above. The method, boiled down:
as §1
For ATP6V0C (UniProt P27449), the log2 fold change was inactive: 0.059.

ATPSCKMT (UniProt Q6P4H8): the log2 fold change was inactive: -0.129.

Consider ATP1B2 (UniProt P14415), for which the log2 fold change is inactive: 0.004.

Turning to ATL2 (UniProt Q8NHH9), the log2 fold change was inactive: -0.032.

For the target ATG10 (UniProt Q9H0Y0), the log2 fold change is inactive: -0.563.

Take ASB6 (UniProt Q9NWX5): the log2 fold change was inactive: -0.083.

Consider ARL5B (UniProt Q96KC2), for which the log2 fold change was inactive: 0.111.

Regarding ARPIN isoform 2 (UniProt Q7Z6K5), the log2 fold change is inactive: -0.16.

With ARSA (UniProt P15289), the log2 fold change is inactive: -0.057.

As to ARRDC1 (UniProt Q8N5I2), the log2 fold change was inactive: 0.027.

As for ARL5A (UniProt Q9Y689), the log2 fold change was inactive: -0.123.

Take ATF7IP isoform 4 (UniProt Q6VMQ6): the log2 fold change is inactive: -0.088.

Take ATP1B1 (UniProt P05026): the log2 fold change is inactive: 0.089.

In the case of ASS1 (UniProt P00966), the log2 fold change is inactive: -0.005.

For the target ATG12 (UniProt O94817), the log2 fold change is inactive: -0.023.

Take ATP2B2 (UniProt Q01814): the log2 fold change was inactive: 0.015.

Consider ARRB1 isoform 2 (UniProt P49407), for which the log2 fold change is inactive: -0.086.

On to ASF1B (UniProt Q9NVP2), for which the log2 fold change was inactive: -0.088.

On to ATG2A (UniProt Q2TAZ0), for which the log2 fold change is inactive: 0.211.

With ATP5F1B (UniProt H0YI37), the log2 fold change was inactive: -0.373.

For the target ARL13B (UniProt Q3SXY8), the log2 fold change was inactive: -0.017.

For the target ATF1 (UniProt P18846), the log2 fold change is inactive: -0.002.

These data come from the supplement of paper PMC10849652.
